Measurements reported in PubChem BioAssay AID1159508 (Drosophila RNAi Screening Center, 2015)
Assay: 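How silencing genes for RNA-binding proteins changes cellular ATP without other treatment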. System: Drosophila S2R+ cells. Reagent: long dsRNA against Drosophila genes. Duration: 5 days. Detection: 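Luminescent ATP signal as a proxy for cell fitness after 5 days of RNAi, given as a z-score in each replicate and averaged over replicates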. Reading the numbers: mean ATP z-score and ATP z-score: higher = more total ATP luminescence. Rule for the call: In these data the active calls have mean ATP z-score at about -2 or lower, or at about 2 or higher. Calls: active = strong ATP change (up or down); inactive = no strong ATP change.
Here is a random part of 812 deposited reagents. 18 of them (2.2%) count as active. 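Calls include both increased and decreased ATP; roughly one in four reagents has no third replicate value.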 A number with no mark means an inactive call. Not all columns of the deposit are shown. Not stated in the record: the amount of reagent.

Against papi [DRSC00693], the values are mean ATP z-score 0.456; ATP z-score, replicate 1 = 0.247. After knock-down of papi [DRSC42659], the record shows mean ATP z-score 0.24; ATP z-score, replicate 1 = 0.137. Silencing of NELF-B [DRSC17734] gave: mean ATP z-score 0.034; ATP z-score, replicate 1 = -0.189. With knock-down of NELF-B [DRSC34513], the record shows mean ATP z-score 0.288; ATP z-score, replicate 1 = 0.188. Against Paip1 [DRSC23561] the deposit lists mean ATP z-score -0.176; ATP z-score, replicate 1 = -0.308. Against Paip1 [DRSC30789], the entry reads mean ATP z-score -0.973; ATP z-score, replicate 1 = -1.14.

For vas (retired record) [DRSC22007] the deposit lists mean ATP z-score 0.448; ATP z-score, replicate 1 = 0.237. With knock-down of vas (retired record) [DRSC40771], the record shows mean ATP z-score 0.0583; ATP z-score, replicate 1 = -0.128. With knock-down of CG2100 [DRSC12303], the screen gave mean ATP z-score -0.399; ATP z-score, replicate 1 = -0.642. After knock-down of CG2100 [DRSC42692], the record shows mean ATP z-score 0.19; ATP z-score, replicate 1 = -0.013. With knock-down of Rrp4 [DRSC04434] the results were mean ATP z-score -0.149; ATP z-score, replicate 1 = -0.569. After knock-down of Rrp4 [DRSC39222], the record shows mean ATP z-score 0.521; ATP z-score, replicate 1 = 0.0681.

For Dp1 [DRSC07403] the deposit lists mean ATP z-score 0.739; ATP z-score, replicate 1 = 0.345. Dp1 [DRSC35700] showed mean ATP z-score 1.01; ATP z-score, replicate 1 = 0.76. Against Pof [DRSC04405], the values are mean ATP z-score -0.107; ATP z-score, replicate 1 = -0.633. Pof [DRSC35955] scored mean ATP z-score 0.382; ATP z-score, replicate 1 = -0.336. With knock-down of spen [DRSC34301], the screen gave mean ATP z-score -0.508; ATP z-score, replicate 1 = -0.857. After knock-down of spen [DRSC34302] the results were mean ATP z-score 0.328; ATP z-score, replicate 1 = -0.157.

With knock-down of Ythdc1 [DRSC08141], the screen gave mean ATP z-score 0.771; ATP z-score, replicate 1 = 0.303. Ythdc1 [DRSC42651] scored mean ATP z-score -0.791; ATP z-score, replicate 1 = -1.17. Against CG4021 [DRSC04439], the entry reads mean ATP z-score -0.593; ATP z-score, replicate 1 = -0.869. Against CG4021 [DRSC25492], the values are mean ATP z-score -0.0539; ATP z-score, replicate 1 = -0.26.

3 entries from above, reduced to “mean ATP z-score”:
spen [DRSC34302]: 0.328
Ythdc1 [DRSC08141]: 0.771
Ythdc1 [DRSC42651]: -0.791
